Source: patent US20120045391A1 (NATIONAL RESEARCH COUNCIL CANADA, published 2012)
These are yes or no findings as the source states them, for the method shown. Some binding calls cover weakened binding; strength is not graded here.

T1: IGFBP7 (recombinant; preparation not specified) (UniProt Q16270)
T1 sequence (looked up): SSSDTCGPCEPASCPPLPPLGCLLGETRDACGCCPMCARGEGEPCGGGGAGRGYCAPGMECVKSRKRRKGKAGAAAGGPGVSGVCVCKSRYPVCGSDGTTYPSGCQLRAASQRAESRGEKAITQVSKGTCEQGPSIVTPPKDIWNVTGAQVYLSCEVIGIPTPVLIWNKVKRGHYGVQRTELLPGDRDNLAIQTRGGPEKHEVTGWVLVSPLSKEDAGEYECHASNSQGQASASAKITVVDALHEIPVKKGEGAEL

T2: recombinant protein IGFBP7 from R&D (UniProt Q16270 27-282)
T2 construct: Bought protein immobilized on the Biacore chip; also called recombinant IGFBP7
T2 sequence (looked up): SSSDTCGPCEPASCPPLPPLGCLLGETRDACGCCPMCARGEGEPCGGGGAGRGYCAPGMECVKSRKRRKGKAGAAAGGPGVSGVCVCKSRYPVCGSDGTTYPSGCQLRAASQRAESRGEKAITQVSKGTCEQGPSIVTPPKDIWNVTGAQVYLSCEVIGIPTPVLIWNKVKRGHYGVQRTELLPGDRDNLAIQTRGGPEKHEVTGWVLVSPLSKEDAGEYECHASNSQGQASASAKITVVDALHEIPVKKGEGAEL

T3: recombinant custom-synthesized IGFBP7 (UniProt Q16270 27-282)
T3 construct: also called custom-synthesized recombinant IGFBP7
T3 sequence (looked up): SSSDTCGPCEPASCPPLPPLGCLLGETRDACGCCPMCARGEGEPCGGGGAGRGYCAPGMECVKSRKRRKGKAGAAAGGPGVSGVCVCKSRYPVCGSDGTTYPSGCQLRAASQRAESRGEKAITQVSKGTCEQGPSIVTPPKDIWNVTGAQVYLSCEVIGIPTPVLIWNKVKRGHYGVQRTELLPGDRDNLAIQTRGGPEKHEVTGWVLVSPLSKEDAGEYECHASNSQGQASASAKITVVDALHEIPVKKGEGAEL


Columns and labels:
[1] = molecular target: T1, IGFBP7 (recombinant; preparation not specified); assay: SPR (BiaCore), IGFBP7 immobilized, sdAb at 0.5-4.5 µM
[2] = molecular target: T2, recombinant protein IGFBP7 from R&D; assay: SPR (BiaCore), IGFBP7 immobilized, sdAb at 25-200 nM
[3] = molecular target: T3, recombinant custom-synthesized IGFBP7; assay: as above

| Binder | binding [1] | binding [2] | binding [3] |
| --- | --- | --- | --- |
| sdAb clone 4.6-IGFBP7 (VHH, also called IGFBP7-4.6; not shown: c-Myc detection tag and 5xHis purification tag added at the C-terminus by vector pSJF2) VHH: QVKLEESGGGSVQPGGSLRLSCAASGRTFSRLAMGWFRQAPGKERELVAGISRSGDGTHYAYSVKGRFTISRDNAANTVELQMNSLKPEDTAVYFCAAARTAFYYYGNDYNYWGQGTQVTVSS | binds |  |  |
| sdAb clone 4.43-IGFBP7 (VHH, not shown: c-Myc detection tag and 5xHis purification tag added at the C-terminus by vector pSJF2) VHH: QVKLEESGGGLVQAGGSLRLSCAASGRTSRRYAMGWFRQAPGKEREFVAGISRSGDGTHYAYSVKGRFTISRDNAANTVELQMNSLKPEDTAVYFCAAARTAFYYYGNDYNYWGQGTQVTVSS |  | binds | binds |
